Measured values reported in paper PMC9881131.
These are yes or no findings as the source states them, for the method shown. Binding seen in cells or lysates may run through a third protein. Some binding calls cover weakened binding; strength is not graded here. For some assays here: Sequences can lack the tags named with a protein.

The chains behind the UniProt entries cited, without tags or fusion partners. Where a name states a change or a piece, a line headed by the entry shows the natural chain unless it says otherwise.
UniProt Q9UDV6: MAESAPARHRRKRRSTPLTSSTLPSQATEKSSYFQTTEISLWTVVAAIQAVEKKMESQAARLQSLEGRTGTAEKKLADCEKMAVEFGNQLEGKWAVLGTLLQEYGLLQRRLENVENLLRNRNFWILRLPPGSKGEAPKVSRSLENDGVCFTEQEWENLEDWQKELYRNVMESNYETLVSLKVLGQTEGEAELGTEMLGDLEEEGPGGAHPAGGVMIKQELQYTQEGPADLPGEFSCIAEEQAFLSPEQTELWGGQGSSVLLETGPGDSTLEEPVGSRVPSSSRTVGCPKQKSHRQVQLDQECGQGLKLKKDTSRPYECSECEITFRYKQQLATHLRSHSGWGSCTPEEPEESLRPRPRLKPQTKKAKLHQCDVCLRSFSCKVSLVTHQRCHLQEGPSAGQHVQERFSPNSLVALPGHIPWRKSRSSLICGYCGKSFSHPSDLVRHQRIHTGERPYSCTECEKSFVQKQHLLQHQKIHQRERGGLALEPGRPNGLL

Key:
Myc-TRAIP wild type = target: T1, Myc-TRAIP wild type (UniProt Q9BWF2); assay: co-IP; 293T cells co-transfected with Myc-TRAIP and GFP-ZNF212 WT, deletion mutants or NLS-fragments; 24 h; lysates with benzonase; IP with anti-Myc bead, immunoblot
T1 sequence: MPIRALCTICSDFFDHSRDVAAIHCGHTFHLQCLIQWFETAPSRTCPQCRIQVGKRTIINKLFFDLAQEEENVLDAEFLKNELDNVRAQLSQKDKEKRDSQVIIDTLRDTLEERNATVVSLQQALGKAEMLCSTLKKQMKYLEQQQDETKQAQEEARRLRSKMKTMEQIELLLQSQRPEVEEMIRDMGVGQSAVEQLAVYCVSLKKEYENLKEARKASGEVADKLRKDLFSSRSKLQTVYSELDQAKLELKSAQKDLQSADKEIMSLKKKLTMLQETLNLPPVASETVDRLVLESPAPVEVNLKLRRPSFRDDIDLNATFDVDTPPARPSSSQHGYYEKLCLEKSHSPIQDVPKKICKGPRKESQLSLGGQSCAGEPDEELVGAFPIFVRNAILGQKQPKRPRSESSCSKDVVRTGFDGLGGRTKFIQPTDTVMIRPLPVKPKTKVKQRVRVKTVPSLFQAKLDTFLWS

endogenous TRAIP = target: T2, endogenous TRAIP (UniProt Q9BWF2); assay: co-IP; endogenous proteins; IP with benzonase using rabbit IgG or anti-TRAIP antibodies, Western blot with ZNF212 specific antibody
T2 sequence: T1 sequence

binding (Myc-TRAIP wild type) | binding (endogenous TRAIP) | Substance
no binding | – | amino acid residues 1–40 of ZNF212 (from UniProt Q9UDV6 1-40) (domain or fragment)
– | binds | endogenous ZNF212 (from UniProt Q9UDV6 1-495)
